# Assay results taken from patent US20150307610A1.
# No constants are given. Whether binding was seen depends on the method and setting. For part of these data: Binding can be weak; no strength is given.
# B1: anti-human RAGE monoclonal antibody 4E5 (murine, hybridoma-derived) (antibody, V domains shown)
# VH: QVQLQQSGAELVRPGTSVKVSCKASGYAFNNYLIEWIKQRPGQGLEWIGVINPGSGGTNHNEKFKVKATLTADKSSSTAYIQLSSLTSDDSAVYFCARSAGTARARFAYWGQGTLVTVSA
# VL: DIQMTQSPSSLSASLGERVSLTCRASQDIGSSLNWLQQEPDGTIKRLIYATSSLDSGVPKRFSGSRSGSDYSLTISSLESEDFVDYYCLQYASFPFTFGSGTKLEIKR
# B2: anti-human RAGE monoclonal antibody 7F9 (murine, hybridoma-derived) (antibody, V domains shown)
# VH: EEKLEESGGGLVQLGGSMKISCVASGFTLSNYWMDWVRQSPEKGLEWIAEIRLKSNYYSTHYAESVKGRFSISRDDSKGSVSLQMDNLTAEDTGIYFCARNAYWYFDVWGTGTTVTVSS
# VL: DIVMTQSHKFMSTSVGDRVSATCKASQDVGTSVAWYQQKLGQSPKLLIYWTSTRHTGVPDRFTGSGSGTDFTLTISNVQSEDLADYFCQQYNNYPLTFGDGTKLELKR
# Columns and labels:
# [1] = biological target: RAGE fragment coated in Fig. 3B (antigen not named on the sheet); assay: condition: about 70 nM (last point, between 10 and 100 nM on the log axis); direct ELISA: purified E. coli RAGE construct protein coated at 1 ug/mL (construct not named for this panel), mAb titrated, donkey anti-mouse HRP, TMB
# [2] = biological target: RAGE fragment coated in Fig. 3A (antigen not named on the sheet); assay: as above
# [3] = biological target: RAGE fragment coated in Fig. 3C (antigen not named on the sheet); assay: as above
# [4] = biological target: RAGE fragment coated in Fig. 4C (antigen not named on the sheet); assay: direct ELISA: purified E. coli RAGE construct protein coated at 1 ug/mL (construct not named for this panel), mAb titrated, donkey anti-mouse HRP, TMB
# [5] = biological target: RAGE fragment coated in Fig. 4A (antigen not named on the sheet); assay: as above
# [6] = biological target: RAGE fragment coated in Fig. 4B (antigen not named on the sheet); assay: as above
# [7] = biological target: RAGE fragment coated in Fig. 4C (antigen not named on the sheet); assay: condition: about 70 nM (last point, between 10 and 100 nM on the log axis); direct ELISA: purified E. coli RAGE construct protein coated at 1 ug/mL (construct not named for this panel), mAb titrated, donkey anti-mouse HRP, TMB
# [8] = biological target: RAGE fragment coated in Fig. 4A (antigen not named on the sheet); assay: as above
# [9] = biological target: RAGE fragment coated in Fig. 4B (antigen not named on the sheet); assay: as above
Binder,binding [1],binding [2],binding [3],binding [4],binding [5],binding [6],binding [7],binding [8],binding [9]
B1,no binding,no binding,no binding,binds,binds,binds,–,–,–
B2,no binding,no binding,no binding,–,–,–,no binding,no binding,no binding
